In PubChem BioAssay AID1347075 (National Center for Advancing Translational Sciences (NCATS), 2019):
Hit rate of the full screen: of about 400,000 compounds, about 5,500 (1.4%) were called active. The shares of active, inactive and inconclusive entries below differ from those in the screen. Calls follow the shape of the dose curve; as a rule, active = well fitted cell-killing curve with a large enough effect; inconclusive = small, poorly fitted or top-dose-only effect, or effect the other way; inactive = flat fitted curve, though single readings scatter. Where the call is inconclusive, the potency comes from a doubtful curve fit.

assay: qHTS assay for MDR1-selective chemotherapeutics: Primary screen using the parental adenocarcinoma cell KB-3-1; conditions: KB-3-1 viability, CellTiter-Glo ATP luminescence, 72 h; activity change, negative = cytotoxic: at 46.1 µM (top of the series); also: nearly all actives have a fitted effect of over 60% in size
In short: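 Multi-concentration cytotoxicity screen in KB-3-1 cells grown in DMEM lacking phenol red with 10% FBS. After 72 h at 37 °C with compound, ATP-dependent luminescence was recorded.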
% is scaled to controls: 0 for no effect and ±100 for the full control effect; potency is read from the fitted curve at half-maximal effect.

Row | Compound | activity change, negative = cytotoxic | Potency
1 | O=C(NC1CCCC1)C(c1ccccn1)N(C(=O)c1csnn1)C1CC1 (stereo not given) | inactive: -3.46% | –
2 | Cc1ccc(CN2C(=O)c3ccccc3Sc3ccc(C(=O)NCCN4CCOCC4)cc32)cc1 | – | inconclusive: 20.6 µM [cytotoxic, single point]
3 | Cc1cc(C)c2ccc(NN)nc2c1O | – | inconclusive: 29.1 µM [cytotoxic, single point]
4 | CCn1c(SCC(=O)Nc2ccc3c(c2)n(C)c(=O)n3C)nnc1-c1ccncc1 | – | inconclusive: 29.1 µM [rising, single point]
5 | NS(=O)(=O)c1cccc(NC(=O)CSc2nc3nc(-c4cccs4)cc(C(F)(F)F)c3c(=O)[nH]2)c1 | inactive: 23% | –
6 | CCOC(=O)C1(COCc2ccccc2)CCCCC1=O (stereo not given) | – | inconclusive: 16.4 µM [rising, single point]
7 | CC1=C(C(=O)NCc2ccccc2F)C2(CCCCC2)OC1=O | inactive: -6.11% | –
8 | COc1ccc(-c2cn3nc(N4CCCC(C(=O)NCc5ccc(Cl)cc5)C4)sc3n2)cc1 (stereo not given) | – | inconclusive: 29.1 µM [cytotoxic, single point]
9 | COc1ccc(-n2ncc3c(=O)n(CC(=O)N4CCCc5ccccc54)cnc32)cc1 | – | inconclusive: 29.1 µM [cytotoxic, single point]
10 | Cc1nn(C)c(Oc2cccc(C(F)(F)F)c2)c1C=O | inactive: 0.0445% | –
11 | O=C(COC(=O)/C=C/c1ccccc1)NC(=O)NCc1ccccc1 | – | inconclusive: 16.4 µM [cytotoxic, single point]
12 | CN(C)C(=O)CCc1ccc2c3c([nH]c2c1)[C@]1(C)[C@@H](C(=O)N2CCCCC2)C[C@H](CC(=O)NCC24CC5CC(CC(C5)C2)C4)C(=O)N1CC3 | – | inconclusive: 29.1 µM [cytotoxic, single point]
13 | CCN1Cc2c(/C=C/c3ccccc3)nc3ccc(OC)cc3c2N(c2cccc(Cl)c2)C1 | – | inconclusive: 20.6 µM [cytotoxic, single point]
14 | CC(NC(=O)CC(c1ccccc1)c1cc(Cl)ccc1O)c1ccccc1 (stereo not given) | – | inconclusive: 29.1 µM [cytotoxic, single point]
15 | CCC(=O)NC(c1ccc(OC)cc1)c1cc(Cl)c2cccnc2c1O (stereo not given) | – | inconclusive: 2.59 µM [cytotoxic, full curve]
16 | Cc1cc(N2CCCC2)nc2ccc(NC(=S)NCCCOC(C)C)cc12 | inactive: -25.9% | –
17 | CCc1ccc(/C=C/c2c[nH]c3ccccc23)[n+](CC)c1 | – | inconclusive: 1.64 µM [cytotoxic, partial curve, poor fit]
18 | CC1=NOC(=O)/C1=C\c1ccc(-c2ccc(Br)cc2C(=O)O)o1 | inactive: -2.94% | –
19 | CC(C)n1c(O)c(N=NC(=O)CNC(=O)c2cccnc2)c2ccccc21 | – | inconclusive: 29.1 µM [cytotoxic, single point]
20 | Cc1cc(C)c2nc(C)cc(N/N=C/c3ccc(O)cc3)c2c1 | – | inconclusive: 20.6 µM [cytotoxic, single point]
21 | COC(=O)c1cc(C(=O)c2c(C)cc3ccccn23)cc([N+](=O)[O-])c1 | – | inconclusive: 29.1 µM [cytotoxic, single point]
22 | O=[N+]([O-])c1cc(Cl)cc(/C=N/NC(=S)Nc2ccc(S(=O)(=O)N3CCOCC3)cc2)c1O | – | inconclusive: 29.1 µM [cytotoxic, single point]
23 | COC(=O)[C@H](Cc1ccccc1)NC(=O)NCCC1=CCCCC1 | inactive: 0.642% | –
24 | Oc1ccc(/C(Cc2ccc3ccccc3n2)=N\Nc2ccccc2)c(O)c1 | – | inconclusive: 23.1 µM [cytotoxic, single point]

In the list so far, these have an NH in an aromatic ring.
Row | Compound | activity change, negative = cytotoxic | Potency
5 | NS(=O)(=O)c1cccc(NC(=O)CSc2nc3nc(-c4cccs4)cc(C(F)(F)F)c3c(=O)[nH]2)c1 | inactive: 23% | –
12 | CN(C)C(=O)CCc1ccc2c3c([nH]c2c1)[C@]1(C)[C@@H](C(=O)N2CCCCC2)C[C@H](CC(=O)NCC24CC5CC(CC(C5)C2)C4)C(=O)N1CC3 | – | inconclusive: 29.1 µM [cytotoxic, single point]
17 | CCc1ccc(/C=C/c2c[nH]c3ccccc23)[n+](CC)c1 | – | inconclusive: 1.64 µM [cytotoxic, partial curve, poor fit]

A draw from above in order of SMILES length, descending:
Row | Compound | activity change, negative = cytotoxic | Potency
4 | CCn1c(SCC(=O)Nc2ccc3c(c2)n(C)c(=O)n3C)nnc1-c1ccncc1 | – | inconclusive: 29.1 µM [rising, single point]
1 | O=C(NC1CCCC1)C(c1ccccn1)N(C(=O)c1csnn1)C1CC1 (stereo not given) | inactive: -3.46% | –
17 | CCc1ccc(/C=C/c2c[nH]c3ccccc23)[n+](CC)c1 | – | inconclusive: 1.64 µM [cytotoxic, partial curve, poor fit]

Additional entries.

Row | Compound | activity change, negative = cytotoxic | Potency
25 | CN(C)Cc1csc(NC(=O)Nc2ccccc2Oc2ccccc2)n1 | – | inconclusive: 29.1 µM [cytotoxic, single point]
26 | O=c1ccc2cc3c(-c4ccccc4)coc3cc2o1 | – | active: 18.4 µM
27 | COc1ccc(CC(=O)Nc2cccc(Cl)c2C)cc1S(=O)(=O)N1CCOCC1 | inconclusive: -22.9% | –
28 | CC(C)(C)c1ccc(C(=O)Nc2ccc(S(N)(=O)=O)cc2)cc1 | – | inconclusive: 18.4 µM [cytotoxic, single point]
29 | Cn1cc(CN(C(=O)Nc2ccccc2)C2CCCCC2)c2ccccc21 | – | inconclusive: 29.1 µM [cytotoxic, single point]
30 | COc1ccc(C2=NN(c3nc4ccccc4s3)C(=O)/C2=C\N(C)C)cc1 | – | inconclusive: 14.6 µM [rising, partial curve, poor fit]
31 | O=c1c2cc(Br)ccc2nc(-c2ccc(Cl)cc2)n1O | – | inconclusive: 20.6 µM [cytotoxic, partial curve, poor fit]
32 | COc1cc2c(cc1OC)CN(C(=O)Nc1ccccc1)CC2 | – | inconclusive: 29.1 µM [cytotoxic, single point]
33 | Cc1ccccc1OCC(O)CNC1CCC(NCC(O)COc2ccccc2C)CC1 (stereo not given) | – | active: 3.26 µM
34 | CC(C)(CN1CCNCC1)NS(=O)(=O)c1ccc(Cl)cc1 | – | active: 20.6 µM
35 | CCn1cc2nc(SCc3cc(C)ccc3C)n(CCc3ccccc3)c(=O)c2n1 | inactive: 18% | –
36 | c1ccc(Cn2ncc3c(N4CCN(C(c5ccccc5)c5ccccc5)CC4)ncnc32)cc1 | – | inconclusive: 32.6 µM [cytotoxic, single point]
37 | O=C(c1ccc2c3c(cccc13)CC2)C1CCCN(Cc2ccncc2)C1 (stereo not given) | inactive: -21.8% | –
38 | COc1ccc(NC(=O)CS(=O)c2ccc(Br)cc2)cc1 (stereo not given) | inactive: -4.1% | –
39 | Cc1ccc(C(=O)c2c[nH]cc2-c2ccccc2)cc1 | – | inconclusive: 23.1 µM [rising, partial curve, poor fit]
40 | Cc1ccccc1OCCc1c(C)[nH]c(=S)[nH]c1=O | – | active: 1.46 µM
41 | CCCCCc1cc(=O)oc2c(C(CCN3CCCCC3)c3ccc(OC)cc3)c(OC)cc(OC)c12 (stereo not given) | – | inconclusive: 29.1 µM [cytotoxic, single point]
42 | COc1ccc(/C=C/c2cnccn2)cc1OC | – | inconclusive: 23.1 µM [rising, partial curve, poor fit]
43 | O=C(Nc1ccccc1N1CCN(c2ccccc2)CC1)c1cccc(F)c1 | – | inconclusive: 29.1 µM [cytotoxic, single point]
44 | COc1cc(Cl)ccc1OC1(C)CCN(Cc2ccc3ccccc3c2)C1 (stereo not given) | inactive: -0.0487% | –
45 | Cc1cc(=O)oc2c(C)c(OC3CCCCC3=O)ccc12 (stereo not given) | inactive: 1.57% | –
46 | N=C(N)SCc1cn(-c2ccccc2)nc1-c1ccc(Br)cc1 | – | inconclusive: 18.4 µM [cytotoxic, single point]
47 | CCNC(=O)C1(C)CCN(C(=O)c2cccs2)C1 (stereo not given) | inactive: 0% | –
48 | Cc1ccc(NC(=O)c2c(C(F)(F)F)nn(C)c2SCc2ccc(Cl)cc2)cc1C | – | inconclusive: 29.1 µM [cytotoxic, single point]

Row | Compound | activity change, negative = cytotoxic | Potency
49 | CC(NC(=O)CCSCCC(=O)NC(C)c1ccccc1)c1ccccc1 (stereo not given) | inactive: -1.43% | –
50 | O=C(Nc1ccc(N2CCCC2)c(Cl)c1)c1ccc2c(c1)OCCO2 | – | inconclusive: 29.1 µM [cytotoxic, single point]
51 | Cc1nc2ccccc2c(=O)n1/N=C/c1ccc(F)cc1 | – | inconclusive: 1.46 µM [rising, full curve]
52 | COc1ccccc1CN(C)CC(=O)Nc1ccc(Cl)cc1F | inactive: 1.72% | –
53 | CC1CCc2c(sc3ncn(CCO)c(=O)c23)C1 (stereo not given) | – | inconclusive: 32.6 µM [cytotoxic, single point]
54 | CCOc1ccccc1N1CCN(C(=O)c2ccc3c(c2)OCO3)CC1 | – | inconclusive: 29.1 µM [cytotoxic, single point]
55 | C[C@@H]1CCCCO[C@H](CN(C)S(=O)(=O)c2cn(C)cn2)[C@H](C)CN([C@@H](C)CO)C(=O)c2cc(NC(=O)c3ccccc3)ccc2O1 | – | inconclusive: 7.31 µM [rising, partial curve, poor fit]
56 | O=C(NCCN1CCOCC1)c1ccc(CSc2nc3ccncc3n2Cc2ccc(F)cc2)cc1 | inactive: -1.13% | –
57 | CCOC(=O)c1c(C)[nH]c(C)c1S(=O)(=O)NCc1ccccc1C | inactive: 3.72% | –
58 | Cc1ccc(S(=O)(=O)Oc2ccccc2)cc1 | inactive: 2.56% | –
59 | COc1cc(/C=C2\SC(=S)N(CC(=O)NC3=NCCS3)C2=O)cc(OC)c1OC | inactive: -3.38% | –
60 | CC(=C/C(=O)O)/C=C/c1ccc(Cl)o1 | inactive: 14.3% | –
61 | COC(=O)CNC(c1ccccc1Cl)c1cc(Br)ccc1NC(=O)CCN1CCOCC1 (stereo not given) | – | inconclusive: 29.1 µM [cytotoxic, single point]
62 | O=C(Nc1sc2c(c1C(=O)O)CCC2)c1cccs1 | – | inconclusive: 18.4 µM [cytotoxic, single point]
63 | Cc1cccc(COC[C@H](CC(C)C)N2CCN(C(=O)c3ccc(C(F)(F)F)cc3)CCC2=O)c1 | – | inconclusive: 16.4 µM [cytotoxic, single point]
64 | N#Cc1cccc(C(c2nnnn2Cc2ccccc2)N2CCCC2)c1 (stereo not given) | inactive: -4.8% | –
65 | CC(C)(C)OC(=O)N1CCC(NC(=O)c2[nH]cnc2C(=O)Nc2ccc(Cl)cc2)CC1 | – | inconclusive: 29.1 µM [cytotoxic, single point]
66 | CCc1nc2c(OCC(=O)C(C)(C)C)cccn2c1N(C)C(=O)C1CC1 | inactive: 0% | –
67 | Oc1c(C(c2ccccn2)N2CCOCC2)ccc2cccnc12 (stereo not given) | – | inconclusive: 18.4 µM [cytotoxic, single point]
68 | CCN(CC)S(=O)(=O)c1ccc(N/N=C(\C)c2ccncc2)c([N+](=O)[O-])c1 | – | inconclusive: 29.1 µM [cytotoxic, single point]
69 | CC1CC(C)CN(C(=O)/C(=C\c2ccccc2)c2ccccc2)C1 (stereo not given) | – | inconclusive: 16.4 µM [cytotoxic, partial curve]
70 | C/C(N)=C(/C#N)C(=O)COC(=O)c1ccccc1O | – | inconclusive: 20.6 µM [rising, single point]
